{
  "source": "paper PMC8304497",
  "molecular_target": "T1, Neuronal cell adhesion molecule 2, isoform NCAM2.1 (mouse (endogenous in cerebral cortex)) (UniProt O35136)",
  "T1 sequence": "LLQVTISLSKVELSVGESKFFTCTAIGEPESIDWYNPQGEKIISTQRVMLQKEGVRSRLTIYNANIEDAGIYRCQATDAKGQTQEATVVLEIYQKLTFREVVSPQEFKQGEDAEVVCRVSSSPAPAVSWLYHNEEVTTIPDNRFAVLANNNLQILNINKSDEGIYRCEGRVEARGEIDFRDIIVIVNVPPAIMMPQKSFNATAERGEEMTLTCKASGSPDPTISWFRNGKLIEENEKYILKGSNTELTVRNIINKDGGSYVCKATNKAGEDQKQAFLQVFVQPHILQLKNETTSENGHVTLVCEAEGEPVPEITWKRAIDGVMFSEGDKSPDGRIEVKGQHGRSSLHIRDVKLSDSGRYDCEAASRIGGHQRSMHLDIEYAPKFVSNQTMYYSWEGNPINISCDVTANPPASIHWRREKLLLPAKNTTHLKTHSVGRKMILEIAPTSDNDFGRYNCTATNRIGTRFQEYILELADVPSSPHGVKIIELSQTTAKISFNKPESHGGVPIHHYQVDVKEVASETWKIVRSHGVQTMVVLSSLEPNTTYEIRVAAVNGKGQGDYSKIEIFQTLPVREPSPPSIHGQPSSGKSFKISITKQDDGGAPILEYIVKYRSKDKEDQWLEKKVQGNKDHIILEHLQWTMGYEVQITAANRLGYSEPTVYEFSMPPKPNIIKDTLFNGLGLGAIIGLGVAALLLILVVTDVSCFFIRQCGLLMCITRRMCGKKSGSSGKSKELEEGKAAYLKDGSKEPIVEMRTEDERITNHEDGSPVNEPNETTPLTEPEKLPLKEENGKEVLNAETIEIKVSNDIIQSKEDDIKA",
  "experiment": "co-IP; eluates of the antibody-conjugated magnetic beads (as for the mass spectrometry) blotted for NCAM2; membrane fraction of postnatal mouse cortex",
  "note": "These are yes or no findings as the source states them, for the method shown. Binding seen in cells or lysates may run through a third protein. Binding calls can cover weak binding; strength is not graded here.",
  "data": [
    {"substance": "Neuronal cell adhesion molecule 2, isoform NCAM2.2 (mouse (endogenous in cerebral cortex))", "values": [
      {"measurement": "binding", "result": "binds"}
    ]}
  ]
}
